Data published in the supplement of paper PMC12067093, “Discovery and optimisation of a covalent ligand for TRIM25 and its application to targeted protein ubiquitination” (Chemical Science, 2025).
The list shows a part of the results.

Protein sequences, listed by entry. Tags and fused reporters are not part of them. Lines headed by an entry give the natural chain unless they say otherwise; changes in a name come on top.
UniProt O43422: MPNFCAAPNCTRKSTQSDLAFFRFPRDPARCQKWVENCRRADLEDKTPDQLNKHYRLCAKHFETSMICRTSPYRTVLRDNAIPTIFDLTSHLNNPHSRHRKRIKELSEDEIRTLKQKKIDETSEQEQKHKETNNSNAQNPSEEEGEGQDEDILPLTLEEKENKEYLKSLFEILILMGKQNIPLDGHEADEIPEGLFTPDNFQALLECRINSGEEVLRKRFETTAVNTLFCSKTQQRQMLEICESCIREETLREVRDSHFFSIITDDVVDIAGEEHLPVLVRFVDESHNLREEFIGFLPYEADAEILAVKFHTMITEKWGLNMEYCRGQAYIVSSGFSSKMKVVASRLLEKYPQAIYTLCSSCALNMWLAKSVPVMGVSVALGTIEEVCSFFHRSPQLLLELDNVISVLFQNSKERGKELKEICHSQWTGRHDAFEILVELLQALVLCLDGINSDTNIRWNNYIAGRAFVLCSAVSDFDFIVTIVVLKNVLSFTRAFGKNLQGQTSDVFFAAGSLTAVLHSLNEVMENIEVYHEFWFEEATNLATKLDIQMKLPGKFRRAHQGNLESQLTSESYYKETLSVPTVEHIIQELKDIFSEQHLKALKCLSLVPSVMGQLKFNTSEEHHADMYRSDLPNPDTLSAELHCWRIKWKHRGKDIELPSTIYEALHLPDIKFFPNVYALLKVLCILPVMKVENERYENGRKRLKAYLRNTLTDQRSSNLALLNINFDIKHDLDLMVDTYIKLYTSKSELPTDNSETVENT
UniProt P52888, whole entry, looked up: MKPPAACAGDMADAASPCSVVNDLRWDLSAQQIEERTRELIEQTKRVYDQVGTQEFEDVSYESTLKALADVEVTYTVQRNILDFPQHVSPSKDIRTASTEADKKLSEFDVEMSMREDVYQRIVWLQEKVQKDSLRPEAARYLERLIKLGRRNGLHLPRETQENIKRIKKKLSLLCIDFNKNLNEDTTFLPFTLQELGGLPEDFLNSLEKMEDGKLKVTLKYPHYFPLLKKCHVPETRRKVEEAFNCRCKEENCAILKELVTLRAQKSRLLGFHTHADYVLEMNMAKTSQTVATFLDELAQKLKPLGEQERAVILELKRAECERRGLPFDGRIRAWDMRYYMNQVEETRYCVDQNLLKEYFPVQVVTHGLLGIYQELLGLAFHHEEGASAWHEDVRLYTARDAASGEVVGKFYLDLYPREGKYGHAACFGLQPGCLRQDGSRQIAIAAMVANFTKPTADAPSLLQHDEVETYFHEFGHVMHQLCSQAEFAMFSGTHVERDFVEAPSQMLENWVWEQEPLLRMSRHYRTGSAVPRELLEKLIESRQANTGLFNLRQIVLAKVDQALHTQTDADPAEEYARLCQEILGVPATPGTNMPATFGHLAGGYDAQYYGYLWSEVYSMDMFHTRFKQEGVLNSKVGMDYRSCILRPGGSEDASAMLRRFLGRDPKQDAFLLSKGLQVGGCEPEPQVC
UniProt Q6YHU6: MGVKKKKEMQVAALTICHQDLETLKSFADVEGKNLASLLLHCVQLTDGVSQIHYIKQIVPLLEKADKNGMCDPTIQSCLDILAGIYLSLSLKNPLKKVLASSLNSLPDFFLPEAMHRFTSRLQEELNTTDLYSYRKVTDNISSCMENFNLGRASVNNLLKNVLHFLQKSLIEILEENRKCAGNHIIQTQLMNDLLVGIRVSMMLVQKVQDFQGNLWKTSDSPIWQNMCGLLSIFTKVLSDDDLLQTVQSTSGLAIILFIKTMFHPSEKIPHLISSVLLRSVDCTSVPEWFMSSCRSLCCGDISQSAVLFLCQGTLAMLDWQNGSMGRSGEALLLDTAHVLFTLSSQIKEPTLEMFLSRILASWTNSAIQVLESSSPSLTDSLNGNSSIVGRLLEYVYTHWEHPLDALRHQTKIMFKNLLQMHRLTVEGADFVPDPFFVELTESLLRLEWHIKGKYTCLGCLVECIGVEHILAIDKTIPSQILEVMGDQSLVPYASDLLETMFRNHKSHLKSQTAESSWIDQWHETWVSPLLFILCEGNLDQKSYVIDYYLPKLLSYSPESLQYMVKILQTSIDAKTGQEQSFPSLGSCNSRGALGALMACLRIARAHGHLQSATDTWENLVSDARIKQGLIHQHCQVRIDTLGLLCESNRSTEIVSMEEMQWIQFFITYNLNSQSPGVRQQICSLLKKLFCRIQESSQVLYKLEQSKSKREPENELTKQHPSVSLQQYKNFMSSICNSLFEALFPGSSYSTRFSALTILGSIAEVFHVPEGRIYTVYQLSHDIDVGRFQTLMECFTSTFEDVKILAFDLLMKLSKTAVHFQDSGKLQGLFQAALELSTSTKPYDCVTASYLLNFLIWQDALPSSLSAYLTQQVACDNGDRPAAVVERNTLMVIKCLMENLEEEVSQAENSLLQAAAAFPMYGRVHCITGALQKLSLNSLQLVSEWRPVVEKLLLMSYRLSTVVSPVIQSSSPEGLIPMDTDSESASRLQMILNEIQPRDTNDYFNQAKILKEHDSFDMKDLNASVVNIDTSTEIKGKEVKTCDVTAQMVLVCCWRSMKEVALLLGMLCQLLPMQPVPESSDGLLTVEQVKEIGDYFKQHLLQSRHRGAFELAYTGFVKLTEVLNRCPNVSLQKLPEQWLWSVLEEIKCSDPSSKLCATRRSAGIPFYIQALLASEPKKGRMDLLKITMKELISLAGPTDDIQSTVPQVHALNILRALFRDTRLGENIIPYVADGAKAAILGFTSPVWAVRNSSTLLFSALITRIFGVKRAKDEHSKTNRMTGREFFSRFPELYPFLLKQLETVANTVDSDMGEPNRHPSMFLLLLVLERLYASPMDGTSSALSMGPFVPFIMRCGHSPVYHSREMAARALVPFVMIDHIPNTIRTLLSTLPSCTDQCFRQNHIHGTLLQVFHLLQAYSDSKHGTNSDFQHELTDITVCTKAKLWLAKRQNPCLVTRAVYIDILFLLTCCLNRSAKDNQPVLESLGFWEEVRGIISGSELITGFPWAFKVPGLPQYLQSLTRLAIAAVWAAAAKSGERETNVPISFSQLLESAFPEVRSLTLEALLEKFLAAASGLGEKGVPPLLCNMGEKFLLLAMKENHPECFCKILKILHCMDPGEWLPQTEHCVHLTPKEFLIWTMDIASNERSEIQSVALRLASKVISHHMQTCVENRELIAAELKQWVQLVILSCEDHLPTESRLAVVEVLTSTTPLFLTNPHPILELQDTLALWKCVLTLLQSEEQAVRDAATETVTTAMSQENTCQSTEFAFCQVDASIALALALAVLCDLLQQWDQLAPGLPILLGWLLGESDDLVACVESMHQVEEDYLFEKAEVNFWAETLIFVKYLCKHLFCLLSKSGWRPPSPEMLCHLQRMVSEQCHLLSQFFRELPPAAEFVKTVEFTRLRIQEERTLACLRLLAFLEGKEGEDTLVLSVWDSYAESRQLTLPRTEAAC
UniProt Q04726: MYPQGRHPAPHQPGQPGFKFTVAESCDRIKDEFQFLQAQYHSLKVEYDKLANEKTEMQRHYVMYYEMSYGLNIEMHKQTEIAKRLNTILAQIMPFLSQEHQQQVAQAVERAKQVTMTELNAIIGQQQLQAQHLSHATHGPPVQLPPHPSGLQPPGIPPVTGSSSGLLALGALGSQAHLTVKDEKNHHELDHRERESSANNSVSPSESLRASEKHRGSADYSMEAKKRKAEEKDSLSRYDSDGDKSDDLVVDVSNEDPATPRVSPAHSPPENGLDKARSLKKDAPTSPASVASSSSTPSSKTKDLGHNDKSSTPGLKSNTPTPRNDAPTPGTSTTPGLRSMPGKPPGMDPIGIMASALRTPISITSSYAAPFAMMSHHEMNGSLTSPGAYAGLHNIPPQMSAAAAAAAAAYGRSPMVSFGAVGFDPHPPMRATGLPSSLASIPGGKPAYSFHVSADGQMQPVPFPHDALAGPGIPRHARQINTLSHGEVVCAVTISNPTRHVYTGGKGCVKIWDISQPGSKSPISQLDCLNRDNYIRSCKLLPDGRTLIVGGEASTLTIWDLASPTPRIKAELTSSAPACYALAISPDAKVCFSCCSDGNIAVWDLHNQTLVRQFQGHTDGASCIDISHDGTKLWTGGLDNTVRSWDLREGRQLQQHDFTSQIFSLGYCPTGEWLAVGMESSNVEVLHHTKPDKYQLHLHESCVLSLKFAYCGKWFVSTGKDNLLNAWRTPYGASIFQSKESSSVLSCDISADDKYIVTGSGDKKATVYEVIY
UniProt Q86W42: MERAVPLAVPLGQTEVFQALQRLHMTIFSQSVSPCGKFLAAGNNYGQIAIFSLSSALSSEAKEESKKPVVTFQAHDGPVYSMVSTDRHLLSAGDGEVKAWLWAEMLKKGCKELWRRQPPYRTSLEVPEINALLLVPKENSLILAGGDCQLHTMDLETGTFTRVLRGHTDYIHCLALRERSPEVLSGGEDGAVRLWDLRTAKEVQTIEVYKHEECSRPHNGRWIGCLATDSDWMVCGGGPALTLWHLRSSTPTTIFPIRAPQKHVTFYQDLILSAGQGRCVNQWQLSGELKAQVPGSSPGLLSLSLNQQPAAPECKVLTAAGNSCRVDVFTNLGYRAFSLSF
UniProt Q96N21: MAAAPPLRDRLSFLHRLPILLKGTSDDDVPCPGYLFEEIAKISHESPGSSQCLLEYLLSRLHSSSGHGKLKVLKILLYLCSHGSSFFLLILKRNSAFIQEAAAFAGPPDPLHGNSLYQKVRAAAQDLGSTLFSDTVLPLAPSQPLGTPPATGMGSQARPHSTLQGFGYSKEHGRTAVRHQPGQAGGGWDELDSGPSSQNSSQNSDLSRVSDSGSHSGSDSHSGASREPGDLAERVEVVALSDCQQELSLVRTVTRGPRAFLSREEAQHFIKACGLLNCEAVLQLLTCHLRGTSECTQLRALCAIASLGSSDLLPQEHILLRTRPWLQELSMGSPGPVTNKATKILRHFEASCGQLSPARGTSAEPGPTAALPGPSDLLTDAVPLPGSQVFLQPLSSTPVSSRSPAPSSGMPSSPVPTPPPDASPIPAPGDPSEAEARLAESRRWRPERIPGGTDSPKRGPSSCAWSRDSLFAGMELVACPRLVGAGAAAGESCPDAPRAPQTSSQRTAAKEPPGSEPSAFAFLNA
UniProt Q9NUW8, whole entry, looked up: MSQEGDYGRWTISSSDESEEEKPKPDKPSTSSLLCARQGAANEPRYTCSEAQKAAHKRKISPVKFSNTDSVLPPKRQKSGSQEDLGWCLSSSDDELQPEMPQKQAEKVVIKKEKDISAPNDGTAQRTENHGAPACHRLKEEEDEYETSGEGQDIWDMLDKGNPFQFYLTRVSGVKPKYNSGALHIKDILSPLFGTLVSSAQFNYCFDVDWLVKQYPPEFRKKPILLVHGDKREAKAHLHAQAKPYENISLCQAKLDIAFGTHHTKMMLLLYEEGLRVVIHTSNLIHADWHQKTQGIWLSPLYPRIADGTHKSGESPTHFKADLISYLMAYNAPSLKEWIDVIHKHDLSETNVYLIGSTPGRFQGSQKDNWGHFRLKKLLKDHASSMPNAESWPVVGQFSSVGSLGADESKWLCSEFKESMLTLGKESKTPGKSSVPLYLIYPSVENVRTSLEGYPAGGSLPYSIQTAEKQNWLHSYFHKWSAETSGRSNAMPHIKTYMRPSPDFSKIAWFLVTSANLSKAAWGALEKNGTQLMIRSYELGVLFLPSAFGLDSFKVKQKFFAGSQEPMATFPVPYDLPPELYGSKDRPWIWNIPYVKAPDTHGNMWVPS
UniProt Q3ZCQ8: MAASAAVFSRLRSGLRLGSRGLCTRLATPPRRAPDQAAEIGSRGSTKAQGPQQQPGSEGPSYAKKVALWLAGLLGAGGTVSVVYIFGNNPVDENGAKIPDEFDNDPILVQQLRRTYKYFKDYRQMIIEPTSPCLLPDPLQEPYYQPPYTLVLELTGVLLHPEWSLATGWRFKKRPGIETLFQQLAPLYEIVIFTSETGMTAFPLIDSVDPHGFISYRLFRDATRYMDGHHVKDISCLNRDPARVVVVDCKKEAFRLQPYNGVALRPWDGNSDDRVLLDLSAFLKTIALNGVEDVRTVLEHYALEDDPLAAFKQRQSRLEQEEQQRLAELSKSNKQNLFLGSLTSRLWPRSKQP
UniProt Q3LXA3: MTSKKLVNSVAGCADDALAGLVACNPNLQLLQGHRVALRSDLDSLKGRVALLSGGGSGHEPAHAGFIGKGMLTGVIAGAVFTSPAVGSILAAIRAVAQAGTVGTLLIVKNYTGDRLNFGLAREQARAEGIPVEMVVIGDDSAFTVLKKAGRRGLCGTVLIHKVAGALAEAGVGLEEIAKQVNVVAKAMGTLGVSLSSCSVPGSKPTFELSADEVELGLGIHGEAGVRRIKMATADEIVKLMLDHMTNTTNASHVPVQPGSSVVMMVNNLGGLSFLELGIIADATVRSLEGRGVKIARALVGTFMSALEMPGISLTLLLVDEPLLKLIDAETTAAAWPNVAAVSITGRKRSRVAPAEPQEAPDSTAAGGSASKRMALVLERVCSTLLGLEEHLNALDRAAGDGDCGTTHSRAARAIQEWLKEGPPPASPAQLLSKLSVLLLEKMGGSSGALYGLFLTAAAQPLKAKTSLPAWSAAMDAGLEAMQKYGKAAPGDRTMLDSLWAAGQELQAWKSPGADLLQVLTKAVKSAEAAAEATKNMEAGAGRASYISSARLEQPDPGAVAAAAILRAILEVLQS

Compound: Cc1cc(ccc1-c1ccccc1)C(=O)N1CCCN(CC1)C(=O)CCl [compound 10]
Assay: probe-labelled cysteine peptide fold change vs DMSO (competition) (log2 fold change); higher = less target engagement (more negative = stronger competition)
Conditions: THP-1, incubation time: 4 h
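Note: competitive profiling in live THP-1 cells: cysteine peptides tagged with an iodoacetamide desthiobiotin (IA-DTB) probe, intensity after compound treatment relative to DMSO-treated cells.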

Target	probe-labelled cysteine peptide fold change (10 µM)	probe-labelled cysteine peptide fold change (50 µM)
TGFB1I1_O43294_231_GLCGSCNKPIAGQVVTALGR (UniProt O43294)	0.054	-0.154
TDP2_O95551_273_CGGLPNNIVDVWEFLGK (UniProt O95551)	-0.0151	0.216
THG1L_Q9NWX6_47_DFEADDTCLAHCWVVVR (UniProt Q9NWX6)	-0.0809	0.0136
TK1_P04183_185_YHSVCR (UniProt P04183)	0.0851	-0.0422
THAP12_O43422_230_FETTAVNTLFCSK (UniProt O43422)	-0.0157	-0.041
THOP1_P52888_246_KVEEAFNCR (UniProt P52888)	-0.102	-0.282
THBD_P07204_267_CQCPAGAALQADGR (UniProt P07204)	0.107	0.323
TEX264_Q9Y6I9_68_LFTESCSISPK (UniProt Q9Y6I9)	-0.0839	-0.424
TDRD7_Q8NHU6_284_EDLNQGILQQFEHWPHICTVEK (UniProt Q8NHU6)	0.12	0.321
TCP1_P17987_357_ICDDELILIK (UniProt P17987)	-0.172	0.0379
THEM6_Q8WUY1_104_AHTVLAASCAR (UniProt Q8WUY1)	-0.0518	-0.228
THOP1_P52888_350_YCVDQNLLK (UniProt P52888)	-0.000536	-0.0392
THAP12_O43422_230_RFETTAVNTLFCSK (UniProt O43422)	-0.0392	-0.0496
TERF2IP_Q9NYB0_54_LSTLILHGGGTVCR (UniProt Q9NYB0)	-0.0408	-0.125
TIMM17B_O60830_17_IVDDCGGAFTMGVIGGGVFQAIK (UniProt O60830)	-0.00359	0.278
THADA_Q6YHU6_926_VHCITGALQK (UniProt Q6YHU6)	-0.0589	-0.0508
TLN1_Q9Y490_1353_AVTDSINQLITMCTQQAPGQK (UniProt Q9Y490)	0.11	0.156
TLE3_Q04726_26_FTVAESCDR (UniProt Q04726)	0.0108	0.0838
TES_Q9UGI8_22_MGLGHEQGFGAPCLK (UniProt Q9UGI8)	-0.0252	-0.261
THBS1_P07996_754_IPDDRDNCPFHYNPAQYDYDRDDVGDR (UniProt P07996)	-0.513	0.243
TDRD7_Q8NHU6_600_VVESLTCGK (UniProt Q8NHU6)	0.0499	0.0939
THOC2_Q8NI27_1111_ASVHCLETGEYTHIR (UniProt Q8NI27)	-0.216	0.5

Target	probe-labelled cysteine peptide fold change (10 µM)	probe-labelled cysteine peptide fold change (50 µM)
TK1_P04183_153_LTAVCMECFR (UniProt P04183)	0.211	0.199
THADA_Q6YHU6_464_YTCLGCLVECIGVEHILAIDK (UniProt Q6YHU6)	0.454	0.464
TFB1M_Q8WVM0_160_WLENISCR (UniProt Q8WVM0)	-0.139	0.0286
THEMIS2_Q5TEJ8_410_LSDQAGEDEEEECKEEAESPER (UniProt Q5TEJ8)	0.242	-0.158
THOC3_Q96J01_306_LWEVQCESPTFTVAWHPK (UniProt Q96J01)	-0.0934	-0.0798
TKT_P29401_386_TVPFCSTFAAFFTR (UniProt P29401)	-0.104	0.203
TCP1_P17987_296_ILATGANVILTTGGIDDMCLK (UniProt P17987)	0.17	0.145
TK1_P04183_206_ENCPVPGKPGEAVAAR (UniProt P04183)	-0.0233	-0.211
THOC3_Q96J01_326_RPLLAFACDDK (UniProt Q96J01)	-0.129	-0.0587
THOP1_P52888_427+434_YGHAACFGLQPGCLR (UniProt P52888)	-0.0271	-0.158
TIMM10B_Q9Y5J6_52_ALDAEEEACLHSCAGK (UniProt Q9Y5J6)	0.141	-0.228
TKT_P29401_206+225_RCEAFGWHAIIVDGHSVEELCK (UniProt P29401)	-0.0863	0.0364
THY1_P04216_28_VTSLTACLVDQSLR (UniProt P04216)	-0.159	0.239
TET2_Q6N021_784_VEECFHGENQYSK (UniProt Q6N021)	-0.295	-0.385
TEX264_Q9Y6I9_165_KLCAYPR (UniProt Q9Y6I9)	-0.0198	-0.67
THOC6_Q86W42_279_CVNQWQLSGELK (UniProt Q86W42)	0.114	0.112
TGFBR1_P36897_71_VIHNSMCIAEIDLIPR (UniProt P36897)	0.188	0.0551
TEPSIN_Q96N21_463_RGPSSCAWSR (UniProt Q96N21)	-0.249	-0.514
TIPRL_O75663_87_VACAEEWQESR (UniProt O75663)	-0.298	-0.699
TDP1_Q9NUW8_251_PYENISLCQAK (UniProt Q9NUW8)	-0.0231	0.0761
THG1L_Q9NWX6_279_TKPVPLHCDIIGDAFWK (UniProt Q9NWX6)	-0.236	-0.00933
TLN1_Q9Y490_1087_CTQDLGNSTK (UniProt Q9Y490)	0.326	0.241

Target	probe-labelled cysteine peptide fold change (10 µM)	probe-labelled cysteine peptide fold change (50 µM)
TGFBR1_P36897_461_LRPNIPNRWQSCEALR (UniProt P36897)	-0.293	-0.28
THUMPD1_Q9NXG2_31_CDAGGPR (UniProt Q9NXG2)	0.347	1.08
TKT_P29401_417_MAAISESNINLCGSHCGVSIGEDGPSQMALEDLAMFR (UniProt P29401)	0.31	-0.138
THOP1_P52888_175_LSLLCIDFNK (UniProt P52888)	-0.158	0.105
TEPSIN_Q96N21_295_GTSECTQLR (UniProt Q96N21)	0.354	0.0174
THOC5_Q13769_59_YTCQELQR (UniProt Q13769)	0.148	0.198
TEP1_Q99973_21_CLAMLPDLQPLEK (UniProt Q99973)	-0.123	-0.342
TKT_P29401_42_ISSIQATTAAGSGHPTSCCSAAEIMAVLFFHTMR (UniProt P29401)	-0.207	-0.178
THBS1_P07996_171_AQLYIDCEK (UniProt P07996)	-0.252	-0.258
THBS1_P07996_599_EVPDACFNHNGEHR (UniProt P07996)	-0.538	-0.399
TIMM50_Q3ZCQ8_249_VVVVDCK (UniProt Q3ZCQ8)	0.628	0.897
TFCP2_Q12800_369_DDVIQICGPADGIR (UniProt Q12800)	0.00967	0.0734
TDRD7_Q8NHU6_77_SGEITCYAMACTETAR (UniProt Q8NHU6)	-0.0811	-1.42
TKT_P29401_206+225_CEAFGWHAIIVDGHSVEELCK (UniProt P29401)	0.177	0.275
TLE3_Q04726_490_QINTLSHGEVVCAVTISNPTR (UniProt Q04726)	0.157	0.119
TGFBR1_P36897_347_NGTCCIADLGLAVR (UniProt P36897)	-0.145	-0.181
TLN1_Q9Y490_1927_VQELGHGCAALVTK (UniProt Q9Y490)	0.117	-0.0163
THAP12_O43422_68_HFETSMICR (UniProt O43422)	0.0308	-0.127
TESC_Q96BS2_213_FLNMETMALCH (UniProt Q96BS2)	-0.431	-1.46
TCP1_P17987_76_VLCELADLQDK (UniProt P17987)	0.0996	0.0907
THOC2_Q8NI27_1045_FLCCMLETVTR (UniProt Q8NI27)	0.0255	-0.435
TKFC_Q3LXA3_155_RGLCGTVLIHK (UniProt Q3LXA3)	0.0371	0.16

Reformatted in CSV form: entries from further up
Target,probe-labelled cysteine peptide fold change (10 µM),probe-labelled cysteine peptide fold change (50 µM)
TEPSIN_Q96N21_463_RGPSSCAWSR (UniProt Q96N21),-0.249,-0.514
TIPRL_O75663_87_VACAEEWQESR (UniProt O75663),-0.298,-0.699
TDP1_Q9NUW8_251_PYENISLCQAK (UniProt Q9NUW8),-0.0231,0.0761
THG1L_Q9NWX6_279_TKPVPLHCDIIGDAFWK (UniProt Q9NWX6),-0.236,-0.00933
TLN1_Q9Y490_1087_CTQDLGNSTK (UniProt Q9Y490),0.326,0.241
TGFBR1_P36897_461_LRPNIPNRWQSCEALR (UniProt P36897),-0.293,-0.28
THUMPD1_Q9NXG2_31_CDAGGPR (UniProt Q9NXG2),0.347,1.08
TKT_P29401_417_MAAISESNINLCGSHCGVSIGEDGPSQMALEDLAMFR (UniProt P29401),0.31,-0.138
THOP1_P52888_175_LSLLCIDFNK (UniProt P52888),-0.158,0.105
TEPSIN_Q96N21_295_GTSECTQLR (UniProt Q96N21),0.354,0.0174
THOC5_Q13769_59_YTCQELQR (UniProt Q13769),0.148,0.198
TEP1_Q99973_21_CLAMLPDLQPLEK (UniProt Q99973),-0.123,-0.342
TKT_P29401_42_ISSIQATTAAGSGHPTSCCSAAEIMAVLFFHTMR (UniProt P29401),-0.207,-0.178
THBS1_P07996_171_AQLYIDCEK (UniProt P07996),-0.252,-0.258
THBS1_P07996_599_EVPDACFNHNGEHR (UniProt P07996),-0.538,-0.399
TIMM50_Q3ZCQ8_249_VVVVDCK (UniProt Q3ZCQ8),0.628,0.897
TFCP2_Q12800_369_DDVIQICGPADGIR (UniProt Q12800),0.00967,0.0734
TDRD7_Q8NHU6_77_SGEITCYAMACTETAR (UniProt Q8NHU6),-0.0811,-1.42
TKT_P29401_206+225_CEAFGWHAIIVDGHSVEELCK (UniProt P29401),0.177,0.275
TLE3_Q04726_490_QINTLSHGEVVCAVTISNPTR (UniProt Q04726),0.157,0.119
TGFBR1_P36897_347_NGTCCIADLGLAVR (UniProt P36897),-0.145,-0.181
TLN1_Q9Y490_1927_VQELGHGCAALVTK (UniProt Q9Y490),0.117,-0.0163
THAP12_O43422_68_HFETSMICR (UniProt O43422),0.0308,-0.127
TESC_Q96BS2_213_FLNMETMALCH (UniProt Q96BS2),-0.431,-1.46

(listing goes on)

Target	probe-labelled cysteine peptide fold change (10 µM)	probe-labelled cysteine peptide fold change (50 µM)
TDRD7_Q8NHU6_284_ELYKEDLNQGILQQFEHWPHICTVEK (UniProt Q8NHU6)	-0.238	-0.685
TLDC1_Q6P9B6_292_GPCVAVLEDHDK (UniProt Q6P9B6)	-0.0167	0.231
TIGAR_Q9NQ88_256_EVKPTVQCICMNLQDHLNGLTETR (UniProt Q9NQ88)	0.187	-0.00565
THOC6_Q86W42_314_AQVPGSSPGLLSLSLNQQPAAPECK (UniProt Q86W42)	0.105	-0.0567
THBD_P07204_256_EAPGAWDCSVENGGCEHACNAIPGAPR (UniProt P07204)	-0.213	0.174
TDRD7_Q8NHU6_699+706_HMTSECFVSLPFCGK (UniProt Q8NHU6)	-0.116	-0.109
THOC6_Q86W42_214_EVQTIEVYKHEECSR (UniProt Q86W42)	0.0649	0.0934
THOC2_Q8NI27_804_VPSIDVLCNEFHTPHDAAFFLSR (UniProt Q8NI27)	0.302	0.138
TLN1_Q9Y490_1661+1671_APGQLECETAIAALNSCLR (UniProt Q9Y490)	-0.213	-0.418
TELO2_Q9Y4R8_367_AVLICLAQLGEPELR (UniProt Q9Y4R8)	-0.267	0.0442
THOP1_P52888_246_RKVEEAFNCR (UniProt P52888)	-0.0672	-0.292
TKT_P29401_413+417_MAAISESNINLCGSHCGVSIGEDGPSQMALEDLAMFR (UniProt P29401)	-0.0102	-0.00473
TLN1_Q9Y490_1671_DKAPGQLECETAIAALNSCLR (UniProt Q9Y490)	-0.034	-0.408
TLE3_Q04726_528_SPISQLDCLNR (UniProt Q04726)	-0.0216	0.0474
THBS1_P07996_930_DSDGDGRGDACK (UniProt P07996)	-0.977	-0.271
TES_Q9UGI8_412_FMPVEGMVFCSVECK (UniProt Q9UGI8)	-0.0362	-0.000938
TERF2_Q15554_207_EAAVIICIK (UniProt Q15554)	-0.0307	0.0277
TKFC_Q3LXA3_155_GLCGTVLIHK (UniProt Q3LXA3)	0.104	-0.0404
THOC1_Q96FV9_251_NPVQCYEK (UniProt Q96FV9)	-0.187	0.285
